PubChem BioAssay AID1259254, NCATS | 2017

- Purpose: 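Gene knock-downs that lead to re-replication, shown by excess G2 DNA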 (primary screen)
- Cell system: human HCT116 colorectal cancer cells
- Reagent: single siRNA against human genes
- Time to read-out: 3 days
- Read-out: 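Nuclei stained with Hoechst and imaged; cell-cycle phase assigned by DNA content; G2 share scaled per plate, non-targeting siRNA 0%, GMNN siRNA 100%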
- Reading the numbers: G2 robust z-score and G2 cells, % of GMNN control: higher = more G2 cells, more excess DNA replication; raw share of cells in G2: higher = larger share of cells with G2 DNA content
- Call rule: 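Active siRNAs have a G2 robust z of 5 or more median absolute deviations over the median, which in these data means about 38% or higher of GMNN control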
In all, the deposit lists about 59,000 reagents; below is a part drawn at random. In the full data, about 1,550 (2.6%) are marked active. 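G2 share is only a proxy for re-replication; each gene was hit by three separate siRNAs, and active genes were retested.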 The raw values are shown without normalisation. Unmarked entries are inactive. Reagents against one gene are numbered here. Not given: the amount of reagent.

gene	reagent	G2 robust z-score	G2 cells, % of GMNN control	raw share of cells in G2 (%)
RAPSN (receptor associated protein of the synapse)	1	-0.684	-1.85	4.34
RAPSN (receptor associated protein of the synapse)	2	-0.733	-2.19	3.84
RAPSN (receptor associated protein of the synapse)	3	0.849	8.94	7.12
LINC00992 (long independently transcribed non-coding RNA 992)	1	0.248	4.72	5.33
LINC00992 (long independently transcribed non-coding RNA 992)	2	-0.204	1.53	3.41
LINC00992 (long independently transcribed non-coding RNA 992)	3	-0.314	0.757	3.89
SAMM50 (SAMM50 sorting and assembly machinery component)	1	1.61	14.3	9.8
SAMM50 (SAMM50 sorting and assembly machinery component)	2	-0.742	-2.25	2.96
SAMM50 (SAMM50 sorting and assembly machinery component)	3	-0.593	-1.2	2.88
IMPACT (impact RWD domain protein)	1	3.39	26.8	14.8
IMPACT (impact RWD domain protein)	2	4.29	33.1	17.9
IMPACT (impact RWD domain protein)	3	1.07	10.5	6.49
MEX3C (mex-3 RNA binding family member C)	1	-0.56	-0.973	5.51
MEX3C (mex-3 RNA binding family member C)	2	-1.33	-6.38	1.89
MEX3C (mex-3 RNA binding family member C)	3	2.28	19	11.1
CXCR2 (C-X-C motif chemokine receptor 2)	1	-1.36	-6.59	3.48
CXCR2 (C-X-C motif chemokine receptor 2)	2	-1.11	-4.83	2.83
CXCR2 (C-X-C motif chemokine receptor 2)	3	0.556	6.88	5.38
ATP5ME (ATP synthase membrane subunit e)	1	-1.38	-6.76	2.42
ATP5ME (ATP synthase membrane subunit e)	2	-0.132	2.04	4.75
ATP5ME (ATP synthase membrane subunit e)	3	0.932	9.52	8.46
C9orf152 (chromosome 9 open reading frame 152)	1	-0.73	-2.17	3.02
C9orf152 (chromosome 9 open reading frame 152)	2	0.531	6.7	6.18
C9orf152 (chromosome 9 open reading frame 152)	3	-0.138	1.99	5.62
LOC440313 (protein enabled homolog)	1	0.687	7.8	6.63
LOC440313 (protein enabled homolog)	2	-0.705	-1.99	2.66
LOC440313 (protein enabled homolog)	3	-0.48	-0.41	2.98
SPATA31D1 (SPATA31 subfamily D member 1)	1	0.598	7.17	6.23
SPATA31D1 (SPATA31 subfamily D member 1)	2	0.267	4.85	5.51
SPATA31D1 (SPATA31 subfamily D member 1)	3	-0.119	2.13	5.55

Laid out differently: results already given.
IMPACT (impact RWD domain protein) #1 | G2 robust z-score = 3.39; G2 cells, % of GMNN control = 26.8; raw share of cells in G2 (%) = 14.8
IMPACT (impact RWD domain protein) #2 | G2 robust z-score = 4.29; G2 cells, % of GMNN control = 33.1; raw share of cells in G2 (%) = 17.9
IMPACT (impact RWD domain protein) #3 | G2 robust z-score = 1.07; G2 cells, % of GMNN control = 10.5; raw share of cells in G2 (%) = 6.49
